Measured values taken from US20230413823A1, “HYPERLOADED YEAST CELL WALL PARTICLE AND USES THEREOF” (priority 2022, published 2023).
In brackets after ≈: the same amount, converted by molar mass.

Legend:
Experiment in all cases: Antimicrobial microplate assay (MIC 75%)
Type in all cases: cell-based
Escherichia coli Top10 = settings: TOP10, 16 h, read-out: Minimum inhibitory concentration (MIC 75%) E. coli
[1] = tested on: Staphylococcus aureus ATCC 19636; settings: ATCC19636, 16 h, read-out: Minimum inhibitory concentration (MIC 75%) S. aureus
Candida albicans SC5134 = settings: 16 h, 37° C., absorbance 650 nm, read-out: Minimum inhibitory concentration (MIC 75%) C. albicans
Description: The antimicrobial activity of YP-GET was evaluated using a modified published microplate assay procedure (Sultanbawa, Y.; Cusack, A.; Currie, M.; Davis, C. An Innovative Microplate Assay to Facilitate the Detection of Antimicrobial 538Activity in Plant Extracts. J. Rapid Meth. Aut. Mic. 2009, 17 (4), 519-534. haps://doi.org/10.111/j.1745-4581.2009.00187.x). Samples of YP-GET were suspended in 100 μL of growth medium (LB 395was used in antibacterial assays and YPD in antifungal assays) and added to the first row 396 (Row A) of a 96-well plate (all wells in the 96-well plate contain additional 100 μL medium). Serial dilutions (1:1) were performed by transferring 100 μL from Row A to Row B, etc., and finally removing 100 μL from Row H. Diluted Escherichia coli Top10 (Invitrogen, Carlsbad CA), Staphylococcus aureus ATCC 19636 or Candida albicans SC5134 cells (100 μL, […]) were added to all wells of the plate. Initial (t=0) and final (t=16 h, 37° C.) absorbance readings were taken at 650 nm.

CC1(C)S[C@@H]2[C@H](NC(=O)[C@H](N)c3ccccc3)C(=O)N2[C@H]1C(=O)O [Ampicillin]
MIC (Escherichia coli Top10): 8 µg/mL (≈ 22.9 µM)
MIC [1]: < 0.25 µg/mL

OC(Cn1cncn1)(Cn1cncn1)c1ccc(F)cc1F [Fluconazole]
MIC (Candida albicans SC5134): < 2000 µg/mL
